Reference: PubChem BioAssay AID1508597 (Cure First, 2020)
This is a random part of the about 2,100 reagents, under one of the conditions tested. 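Calls flag viability under 80% in either arm, not effects specific to rucaparib; the reference for percent is not stated.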 Some reagents were tested in more than one well and are listed for each. No sequences are given here. Not given: the 100% reference.

Purpose: 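Survival screen with siRNA in ovarian cancer cells derived from patients, with or without rucaparib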 (primary screen)
System: human ovarian carcinoma lines grown from tumours: OCI-P5x (papillary serous) and OCI-C5x (clear cell)
Reagents: siRNA pool against human genes, 1.25 pmol siRNA per well
Duration: 72 h or 96 h, depending on the cell culture
Challenge: rucaparib 20 µM (about IC30) or vehicle, present until read-out
Rucaparib or vehicle: Rucaparib
Cell line: OCI-C5x (clear cell)
Detection: 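ATP luminescence measured at 72 or 96 h according to the culture, then normalised and expressed as percent viability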
Reading the numbers: viability, normalised: higher = more viable cells remaining
Call rule: 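a well counts as a hit if its normalised viability is under 80 percent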
Meaning of the calls: active = viability under 80%; inactive = viability 80% or more

For TLK2, technical replicate 1, what does the deposit list?
viability, normalised (%): 54.2; outcome: active

Which result is listed for TLK2, technical replicate 1?
viability, normalised (%): 60.6; outcome: active

How did the screen score TLK2, technical replicate 2?
viability, normalised (%): 56.1; outcome: active

What did the screen give for TLK2, technical replicate 2?
viability, normalised (%): 40.1; outcome: active

Which result is listed for TLK2, technical replicate 3?
viability, normalised (%): 45.9; outcome: active

With TLK2, technical replicate 3, what does the deposit list?
viability, normalised (%): 58.9; outcome: active

For PDE4A, technical replicate 1, what was measured?
viability, normalised (%): 52.4; outcome: active

What is on record for PDE4A, technical replicate 2?
viability, normalised (%): 42; outcome: active

For PDE4A, technical replicate 3, how do the results read?
viability, normalised (%): 38.3; outcome: active

Part of the list above, reformatted:
{"gene symbol": "TLK2", "technical replicate": "3", "viability, normalised (%)": 45.9, "outcome": "active"}
{"gene symbol": "TLK2", "technical replicate": "3", "viability, normalised (%)": 58.9, "outcome": "active"}

Additional entries follow.
What is on record for USP16, technical replicate 1?
viability, normalised (%): 55.9; outcome: active

With USP16, technical replicate 2, what does the deposit list?
viability, normalised (%): 47.4; outcome: active

With USP16, technical replicate 3, what was measured?
viability, normalised (%): 42.7; outcome: active

With RNASEL, technical replicate 1, what does the deposit list?
viability, normalised (%): 49.4; outcome: active

With RNASEL, technical replicate 2, what does the deposit list?
viability, normalised (%): 32.3; outcome: active

What did the screen give for RNASEL, technical replicate 3?
viability, normalised (%): 70.5; outcome: active

How did the screen score DHX32, technical replicate 1?
viability, normalised (%): 45.3; outcome: active

Which result is listed for DHX32, technical replicate 2?
viability, normalised (%): 47.6; outcome: active

For DHX32, technical replicate 3, how do the results read?
viability, normalised (%): 35.9; outcome: active

Which result is listed for TCF20, technical replicate 1?
viability, normalised (%): 53.4; outcome: active

With TCF20, technical replicate 2, what was measured?
viability, normalised (%): 53.6; outcome: active

How did the screen score TCF20, technical replicate 3?
viability, normalised (%): 35; outcome: active
